Data from the supplement of paper PMC8728848.
This is one part of the list.

Key:
Assay in all cases: glycan array binding signal (z-score within array); higher = stronger binding
Settings in all cases: glycan notation: IUPAC condensed, linker removed
[1] = target: GlcNAc(b1-2)Gal(b1-3)GalNAc
In short: (§1)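 Columns mapping to the same glycan were averaged after glycan names were converted to IUPAC-condensed notation. The data come from 3228 arrays in the Consortium for Functional Glycomics database, limited to those with an available protein sequence. Binding is reported as a within-array Z-score averaged across arrays of one protein sequence and across linkers.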

[2] = target: GlcNAc(b1-2)Man(a1-3)[GlcNAc(b1-2)Man(a1-6)]Man(b1-4)GlcNAc(b1-4)GlcNAc
In short: as §1

[3] = target: GlcNAc(b1-2)Man(a1-3)[GlcNAc(b1-2)Man(a1-6)]Man(b1-4)GlcNAc(b1-4)[Fuc(a1-6)]GlcNAc
In short: as §1

[4] = target: GlcNAc(b1-2)Man(a1-3)[GlcNAc(b1-4)][GlcNAc(b1-2)Man(a1-6)]Man(b1-4)GlcNAc(b1-4)GlcNAc
In short: as §1

[5] = target: GlcNAc(b1-2)Man(a1-3)[GlcNAc(b1-4)][GlcNAc(b1-2)Man(a1-6)]Man(b1-4)GlcNAc(b1-4)[Fuc(a1-6)]GlcNAc
In short: as §1

[6] = target: GlcNAc(b1-2)[GlcNAc(b1-4)]Man(a1-3)[GlcNAc(b1-2)Man(a1-6)]Man(b1-4)GlcNAc(b1-4)GlcNAc
In short: as §1

[7] = target: GlcNAc(b1-2)[GlcNAc(b1-4)]Man(a1-3)[GlcNAc(b1-4)][GlcNAc(b1-2)Man(a1-6)]Man(b1-4)GlcNAc(b1-4)GlcNAc
In short: as §1

[8] = target: GlcNAc(b1-2)[GlcNAc(b1-4)]Man(a1-3)[GlcNAc(b1-4)][GlcNAc(b1-2)[GlcNAc(b1-6)]Man(a1-6)]Man(b1-4)GlcNAc(b1-4)GlcNAc
In short: as §1

[9] = target: GlcNAc(b1-2)[GlcNAc(b1-4)]Man(a1-3)[GlcNAc(b1-4)][GlcNAc(b1-2)[GlcNAc(b1-6)]Man(a1-6)]Man(b1-4)GlcNAc(b1-4)[Fuc(a1-6)]GlcNAc
In short: as §1

[10] = target: GlcNAc(b1-2)[GlcNAc(b1-6)]Man(a1-6)[GlcNAc(b1-2)Man(a1-3)]Man(b1-4)GlcNAc(b1-4)GlcNAc
In short: as §1

[11] = target: GlcNAc(b1-2)[GlcNAc(b1-6)]Man(a1-6)[GlcNAc(b1-2)Man(a1-3)]Man(b1-4)GlcNAc(b1-4)[Fuc(a1-6)]GlcNAc
In short: as §1

[12] = target: GlcNAc(b1-2)[GlcNAc(b1-6)]Man(a1-6)[GlcNAc(b1-4)][GlcNAc(b1-2)Man(a1-3)]Man(b1-4)GlcNAc(b1-4)GlcNAc
In short: as §1

GlcNAc(b1-3)Fuc = target: GlcNAc(b1-3)Fuc
In short: as §1

GlcNAc(b1-3)Gal = target: GlcNAc(b1-3)Gal
In short: as §1

[13] = target: GlcNAc(b1-3)Gal(b1-3)GalNAc
In short: as §1

GlcNAc(b1-3)Gal(b1-4)Glc = target: GlcNAc(b1-3)Gal(b1-4)Glc
In short: as §1

[14] = target: GlcNAc(b1-3)Gal(b1-4)GlcNAc
In short: as §1

[15] = target: GlcNAc(b1-3)Gal(b1-4)GlcNAc(b1-2)Man(a1-3)[GlcNAc(b1-3)Gal(b1-4)GlcNAc(b1-2)Man(a1-6)]Man(b1-4)GlcNAc(b1-4)GlcNAc
In short: as §1

[16] = target: GlcNAc(b1-3)Gal(b1-4)GlcNAc(b1-2)Man(a1-3)[GlcNAc(b1-3)Gal(b1-4)GlcNAc(b1-2)Man(a1-6)]Man(b1-4)GlcNAc(b1-4)[Fuc(a1-6)]GlcNAc
In short: as §1

[17] = target: GlcNAc(b1-3)Gal(b1-4)GlcNAc(b1-2)[GlcNAc(b1-3)Gal(b1-4)GlcNAc(b1-6)]Man(a1-6)[GlcNAc(b1-3)Gal(b1-4)GlcNAc(b1-2)Man(a1-3)]Man(b1-4)GlcNAc(b1-4)GlcNAc
In short: as §1

[18] = target: GlcNAc(b1-3)Gal(b1-4)GlcNAc(b1-3)Gal(b1-4)GlcNAc
In short: as §1

[19] = target: GlcNAc(b1-3)Gal(b1-4)GlcNAc(b1-3)Gal(b1-4)GlcNAc(b1-2)Man(a1-3)[GlcNAc(b1-3)Gal(b1-4)GlcNAc(b1-3)Gal(b1-4)GlcNAc(b1-2)Man(a1-6)]Man(b1-4)GlcNAc(b1-4)GlcNAc
In short: as §1

[20] = target: GlcNAc(b1-3)Gal(b1-4)GlcNAc(b1-3)Gal(b1-4)GlcNAc(b1-2)Man(a1-3)[GlcNAc(b1-3)Gal(b1-4)GlcNAc(b1-3)Gal(b1-4)GlcNAc(b1-2)Man(a1-6)]Man(b1-4)GlcNAc(b1-4)[Fuc(a1-6)]GlcNAc
In short: as §1

[21] = target: GlcNAc(b1-3)Gal(b1-4)GlcNAc(b1-3)Gal(b1-4)GlcNAc(b1-2)[GlcNAc(b1-3)Gal(b1-4)GlcNAc(b1-3)Gal(b1-4)GlcNAc(b1-6)]Man(a1-6)[GlcNAc(b1-3)Gal(b1-4)GlcNAc(b1-3)Gal(b1-4)GlcNAc(b1-2)Man(a1-3)]Man(b1-4)GlcNAc(b1-4)[Fuc(a1-6)]GlcNAc
In short: as §1

[22] = target: GlcNAc(b1-3)Gal(b1-4)GlcNAc(b1-3)Gal(b1-4)GlcNAc(b1-3)Gal(b1-4)GlcNAc(b1-2)Man(a1-3)[GlcNAc(b1-3)Gal(b1-4)GlcNAc(b1-3)Gal(b1-4)GlcNAc(b1-3)Gal(b1-4)GlcNAc(b1-2)Man(a1-6)]Man(b1-4)GlcNAc(b1-4)GlcNAc
In short: as §1

[23] = target: GlcNAc(b1-3)Gal(b1-4)GlcNAc(b1-3)Gal(b1-4)GlcNAc(b1-3)Gal(b1-4)GlcNAc(b1-2)Man(a1-3)[GlcNAc(b1-3)Gal(b1-4)GlcNAc(b1-3)Gal(b1-4)GlcNAc(b1-3)Gal(b1-4)GlcNAc(b1-2)Man(a1-6)]Man(b1-4)GlcNAc(b1-4)[Fuc(a1-6)]GlcNAc
In short: as §1

[24] = target: GlcNAc(b1-3)Gal(b1-4)GlcNAc(b1-3)Gal(b1-4)GlcNAc(b1-3)Gal(b1-4)GlcNAc(b1-2)[GlcNAc(b1-3)Gal(b1-4)GlcNAc(b1-3)Gal(b1-4)GlcNAc(b1-3)Gal(b1-4)GlcNAc(b1-6)]Man(a1-6)[GlcNAc(b1-3)Gal(b1-4)GlcNAc(b1-3)Gal(b1-4)GlcNAc(b1-3)Gal(b1-4)GlcNAc(b1-2)Man(a1-3)]Man(b1-4)GlcNAc(b1-4)[Fuc(a1-6)]GlcNAc
In short: as §1

[25] = target: GlcNAc(b1-3)Gal(b1-4)GlcNAc(b1-3)Gal(b1-4)GlcNAc(b1-3)Gal(b1-4)GlcNAc(b1-3)Gal(b1-4)GlcNAc(b1-2)Man(a1-3)[GlcNAc(b1-3)Gal(b1-4)GlcNAc(b1-3)Gal(b1-4)GlcNAc(b1-3)Gal(b1-4)GlcNAc(b1-3)Gal(b1-4)GlcNAc(b1-2)Man(a1-6)]Man(b1-4)GlcNAc(b1-4)GlcNAc
In short: as §1

[26] = target: GlcNAc(b1-3)Gal(b1-4)GlcNAc(b1-3)Gal(b1-4)GlcNAc(b1-3)Gal(b1-4)GlcNAc(b1-3)Gal(b1-4)GlcNAc(b1-2)Man(a1-3)[GlcNAc(b1-3)Gal(b1-4)GlcNAc(b1-3)Gal(b1-4)GlcNAc(b1-3)Gal(b1-4)GlcNAc(b1-3)Gal(b1-4)GlcNAc(b1-2)Man(a1-6)]Man(b1-4)GlcNAc(b1-4)[Fuc(a1-6)]GlcNAc
In short: as §1

[27] = target: GlcNAc(b1-3)Gal(b1-4)GlcNAc(b1-3)Gal(b1-4)GlcNAc(b1-3)Gal(b1-4)GlcNAc(b1-3)Gal(b1-4)GlcNAc(b1-2)[GlcNAc(b1-3)Gal(b1-4)GlcNAc(b1-3)Gal(b1-4)GlcNAc(b1-3)Gal(b1-4)GlcNAc(b1-3)Gal(b1-4)GlcNAc(b1-6)]Man(a1-6)[GlcNAc(b1-3)Gal(b1-4)GlcNAc(b1-3)Gal(b1-4)GlcNAc(b1-3)Gal(b1-4)GlcNAc(b1-3)Gal(b1-4)GlcNAc(b1-2)Man(a1-3)]Man(b1-4)GlcNAc(b1-4)[Fuc(a1-6)]GlcNAc
In short: as §1

[28] = target: GlcNAc(b1-3)Gal(b1-4)GlcNAc(b1-3)Gal(b1-4)GlcNAc(b1-3)GalNAc
In short: as §1

[29] = target: GlcNAc(b1-3)Gal(b1-4)GlcNAc(b1-3)GalNAc
In short: as §1

[30] = target: GlcNAc(b1-3)Gal(b1-4)GlcNAc(b1-3)[GlcNAc(b1-3)Gal(b1-4)GlcNAc(b1-3)]GalNAc
In short: as §1

[31] = target: GlcNAc(b1-3)Gal(b1-4)GlcNAc(b1-6)[Gal(b1-3)]GalNAc
In short: as §1

[32] = target: GlcNAc(b1-3)Gal(b1-4)GlcNAc(b1-6)[GlcNAc(b1-3)Gal(b1-3)]GalNAc
In short: as §1

[33] = target: GlcNAc(b1-3)Gal(b1-4)GlcNAc(b1-6)[GlcNAc(b1-3)]Gal(b1-4)GlcNAc
In short: as §1

GlcNAc(b1-3)GalNAc = target: GlcNAc(b1-3)GalNAc
In short: as §1

GlcNAc(b1-3)Man = target: GlcNAc(b1-3)Man
In short: as §1

[34] = target: GlcNAc(b1-3)[GlcNAc(b1-4)][GlcNAc(b1-6)]GlcNAc
In short: as §1

[35] = target: GlcNAc(b1-3)[GlcNAc(b1-6)]Gal(b1-4)GlcNAc
In short: as §1

[36] = target: GlcNAc(b1-3)[GlcNAc(b1-6)]GalNAc
In short: as §1

[37] = target: GlcNAc(b1-4)Gal(b1-4)GlcNAc
In short: as §1

GlcNAc(b1-4)GlcNAc = target: GlcNAc(b1-4)GlcNAc
In short: as §1

[38] = target: GlcNAc(b1-4)GlcNAc(b1-4)GlcNAc
In short: as §1

[39] = target: GlcNAc(b1-4)GlcNAc(b1-4)GlcNAc(b1-4)GlcNAc(b1-4)GlcNAc
In short: as §1

B1: Mermaid2 (Stilbonema majum) (protein)
chain: MGSSHHHHHHSSGLVPRGSHMAASGWLRSPQGTVVKLYRRSLSWSKADEFCKDVDGRLVVDRTADMHLFLIKNVLKEKKSRVWVGLRRTAPHSRTWIWSDGTRQNEDDLNTNLWLRDEPNDAAGEEECALFMYSPWEKAWGLNDYLCRGGCRSYQFICEKGIR
With B1 the “glycan array binding signal (z-score)” value [1] was -0.473, the “glycan array binding signal (z-score)” value [2] was -0.35 and the “glycan array binding signal (z-score)” value [3] was 0.316. For the same binder, the “glycan array binding signal (z-score)” value [4] was -0.61, the “glycan array binding signal (z-score)” value [5] was -0.881 and the “glycan array binding signal (z-score)” value [6] was -0.56. The “glycan array binding signal (z-score)” value [7] was -0.864, the “glycan array binding signal (z-score)” value [8] was -0.879 and the “glycan array binding signal (z-score)” value [9] was 0.039. For the same binder, the “glycan array binding signal (z-score)” value [10] was -0.776, the “glycan array binding signal (z-score)” value [11] was -0.217 and the “glycan array binding signal (z-score)” value [12] was -0.487. For the same binder, the “glycan array binding signal (z-score)” value (GlcNAc(b1-3)Fuc) was -0.172, the “glycan array binding signal (z-score)” value (GlcNAc(b1-3)Gal) was -0.448 and the “glycan array binding signal (z-score)” value [13] was -0.101. The “glycan array binding signal (z-score)” value (GlcNAc(b1-3)Gal(b1-4)Glc) was -0.367, the “glycan array binding signal (z-score)” value [14] was -0.634 and the “glycan array binding signal (z-score)” value [15] was -0.025. The “glycan array binding signal (z-score)” value [16] was 0.384, the “glycan array binding signal (z-score)” value [17] was 0.568 and the “glycan array binding signal (z-score)” value [18] was -0.357. The “glycan array binding signal (z-score)” value [19] was 0.201, the “glycan array binding signal (z-score)” value [20] was 0.969 and the “glycan array binding signal (z-score)” value [21] was 0.522. The “glycan array binding signal (z-score)” value [22] was -0.346, the “glycan array binding signal (z-score)” value [23] was 0.765 and the “glycan array binding signal (z-score)” value [24] was 0.306. For the same binder, the “glycan array binding signal (z-score)” value [25] was 0.163, the “glycan array binding signal (z-score)” value [26] was 0.011 and the “glycan array binding signal (z-score)” value [27] was -0.292. For the same binder, the “glycan array binding signal (z-score)” value [28] was -0.057, the “glycan array binding signal (z-score)” value [29] was -0.528 and the “glycan array binding signal (z-score)” value [30] was 0.761. The “glycan array binding signal (z-score)” value [31] was -0.528, the “glycan array binding signal (z-score)” value [32] was 0.067 and the “glycan array binding signal (z-score)” value [33] was -0.719. The “glycan array binding signal (z-score)” value (GlcNAc(b1-3)GalNAc) was -0.441, the “glycan array binding signal (z-score)” value (GlcNAc(b1-3)Man) was 0.674 and the “glycan array binding signal (z-score)” value [34] was -0.642. For the same binder, the “glycan array binding signal (z-score)” value [35] was -0.411, the “glycan array binding signal (z-score)” value [36] was -0.669 and the “glycan array binding signal (z-score)” value [37] was 0.774. For the same binder, the “glycan array binding signal (z-score)” value (GlcNAc(b1-4)GlcNAc) was 2.91, the “glycan array binding signal (z-score)” value [38] was 0.454 and the “glycan array binding signal (z-score)” value [39] was 1.2.
